Counter-ions that a name gives are not always drawn. Some of these results come from one statement about several compounds together.
System: a strain of Pseudomonus
Assay: Bacterial inactivation, gram negative bacteria
Format: cell-based
Settings: 16 μM; after 5 J/cm^2 irradiation; starting titer 6.5 logs

## Cc1oc2c(C)c3oc(=O)cc(C)c3cc2c1CNCCCCN [Compound 6, 4′-(6-Aminohexyl-2-aza)-4,5′,8-trimethylpsoralen Dihydrochloride]
  log kill of bacteria: > 5.5 logs

## Cc1oc2c(C)c3oc(=O)cc(C)c3cc2c1COCCN [Compound 2, 4′-(4-Amino-2-oxa)butyl-4,5′,8-trimiethylpsoralen Hydrochloride]
  log kill of bacteria: > 5.5 logs
